This is one part of the list.
Compound: Cc1cn(-c2cc(NC(=O)c3ccc(C)c(Nc4nccc(-c5cccnc5)n4)c3)cc(C(F)(F)F)c2)cn1 [nilotinib]
Assay: log2 fold change, soluble protein after heating vs DMSO (PISA); higher = thermal stabilisation; K562 lysate, 10 uM; active = over 0.2 and 3.5 SD of the protein, either way, in both replicates (recomputed)
Method in brief: (§1)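 A 30 min treatment with 10 μM compound was applied to crude K562 extract at 1 mg/mL protein in PBS pH 7.4 with 1 mM MgCl2. Heating for 3 min spanned 48°C-58°C, after which aliquots were pooled, adjusted to 0.5% NP-40 at 4°C and spun at 21,000xg for 90 min. TMTpro 16plex LC-MS/MS of the supernatant, with channel sums equalised, gave values recorded as log-two fold change in thermal stability against solvent controls, from duplicates.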

Amino acid sequences for entries named in this document (tags omitted). A change or cut given only in a name is not applied to a line headed by its entry.
UniProt O95182, whole entry, looked up: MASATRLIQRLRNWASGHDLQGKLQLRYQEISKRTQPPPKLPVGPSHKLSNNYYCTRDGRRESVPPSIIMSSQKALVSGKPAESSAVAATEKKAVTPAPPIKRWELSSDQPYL
UniProt Q14934: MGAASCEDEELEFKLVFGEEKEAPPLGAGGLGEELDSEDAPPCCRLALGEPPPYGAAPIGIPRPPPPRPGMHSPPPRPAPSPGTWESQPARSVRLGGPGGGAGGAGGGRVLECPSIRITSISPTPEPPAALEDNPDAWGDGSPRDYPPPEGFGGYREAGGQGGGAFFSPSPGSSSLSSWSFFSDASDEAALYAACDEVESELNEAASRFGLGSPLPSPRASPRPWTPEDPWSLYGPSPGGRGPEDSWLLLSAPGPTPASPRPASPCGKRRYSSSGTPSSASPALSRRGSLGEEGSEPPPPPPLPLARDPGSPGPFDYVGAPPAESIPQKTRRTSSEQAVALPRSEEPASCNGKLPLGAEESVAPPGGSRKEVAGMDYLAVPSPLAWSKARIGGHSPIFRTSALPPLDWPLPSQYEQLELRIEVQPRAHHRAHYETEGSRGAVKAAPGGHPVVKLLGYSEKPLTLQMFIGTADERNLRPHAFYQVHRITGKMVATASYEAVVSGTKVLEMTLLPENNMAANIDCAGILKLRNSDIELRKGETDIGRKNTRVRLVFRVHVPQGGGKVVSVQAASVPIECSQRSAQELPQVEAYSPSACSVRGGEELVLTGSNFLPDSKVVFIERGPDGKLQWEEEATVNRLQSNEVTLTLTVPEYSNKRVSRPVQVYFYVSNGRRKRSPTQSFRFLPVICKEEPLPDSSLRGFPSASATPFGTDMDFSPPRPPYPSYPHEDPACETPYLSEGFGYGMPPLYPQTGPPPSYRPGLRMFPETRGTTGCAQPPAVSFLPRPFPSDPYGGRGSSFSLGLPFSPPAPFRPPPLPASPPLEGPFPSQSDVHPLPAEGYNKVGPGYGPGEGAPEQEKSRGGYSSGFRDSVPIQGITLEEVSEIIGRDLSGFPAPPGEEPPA
UniProt Q9NX24: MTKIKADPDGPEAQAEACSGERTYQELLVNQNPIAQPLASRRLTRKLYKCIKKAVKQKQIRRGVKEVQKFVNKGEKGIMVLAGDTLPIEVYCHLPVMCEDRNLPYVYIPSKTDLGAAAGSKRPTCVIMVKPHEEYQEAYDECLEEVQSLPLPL
UniProt Q12968: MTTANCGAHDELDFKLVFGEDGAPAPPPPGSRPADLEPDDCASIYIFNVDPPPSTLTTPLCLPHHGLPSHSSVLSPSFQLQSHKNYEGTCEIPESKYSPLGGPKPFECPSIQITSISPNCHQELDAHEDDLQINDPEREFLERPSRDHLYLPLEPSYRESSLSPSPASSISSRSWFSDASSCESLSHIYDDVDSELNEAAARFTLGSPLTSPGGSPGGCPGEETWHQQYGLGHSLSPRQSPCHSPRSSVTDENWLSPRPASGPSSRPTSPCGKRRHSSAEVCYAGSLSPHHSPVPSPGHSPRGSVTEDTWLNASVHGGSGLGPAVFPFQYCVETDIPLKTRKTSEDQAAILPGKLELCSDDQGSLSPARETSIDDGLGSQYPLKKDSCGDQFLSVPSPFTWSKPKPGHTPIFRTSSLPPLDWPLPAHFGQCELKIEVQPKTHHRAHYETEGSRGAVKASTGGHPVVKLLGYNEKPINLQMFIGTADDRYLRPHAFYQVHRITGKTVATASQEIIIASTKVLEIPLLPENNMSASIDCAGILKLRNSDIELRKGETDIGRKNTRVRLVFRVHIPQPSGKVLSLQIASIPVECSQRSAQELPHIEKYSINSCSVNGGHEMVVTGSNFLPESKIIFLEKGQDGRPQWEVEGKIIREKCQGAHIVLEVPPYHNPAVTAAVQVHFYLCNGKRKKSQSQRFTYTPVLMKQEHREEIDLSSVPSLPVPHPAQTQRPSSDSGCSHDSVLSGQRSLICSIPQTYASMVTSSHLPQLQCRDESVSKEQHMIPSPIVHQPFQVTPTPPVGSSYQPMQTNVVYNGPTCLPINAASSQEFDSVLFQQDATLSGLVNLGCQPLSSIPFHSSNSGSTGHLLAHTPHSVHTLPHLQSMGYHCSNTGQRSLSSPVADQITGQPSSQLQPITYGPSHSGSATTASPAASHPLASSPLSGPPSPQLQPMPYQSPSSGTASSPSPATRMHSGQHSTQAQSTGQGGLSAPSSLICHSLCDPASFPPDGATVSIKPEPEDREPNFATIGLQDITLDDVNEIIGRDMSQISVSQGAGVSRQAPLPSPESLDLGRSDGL
UniProt O94916: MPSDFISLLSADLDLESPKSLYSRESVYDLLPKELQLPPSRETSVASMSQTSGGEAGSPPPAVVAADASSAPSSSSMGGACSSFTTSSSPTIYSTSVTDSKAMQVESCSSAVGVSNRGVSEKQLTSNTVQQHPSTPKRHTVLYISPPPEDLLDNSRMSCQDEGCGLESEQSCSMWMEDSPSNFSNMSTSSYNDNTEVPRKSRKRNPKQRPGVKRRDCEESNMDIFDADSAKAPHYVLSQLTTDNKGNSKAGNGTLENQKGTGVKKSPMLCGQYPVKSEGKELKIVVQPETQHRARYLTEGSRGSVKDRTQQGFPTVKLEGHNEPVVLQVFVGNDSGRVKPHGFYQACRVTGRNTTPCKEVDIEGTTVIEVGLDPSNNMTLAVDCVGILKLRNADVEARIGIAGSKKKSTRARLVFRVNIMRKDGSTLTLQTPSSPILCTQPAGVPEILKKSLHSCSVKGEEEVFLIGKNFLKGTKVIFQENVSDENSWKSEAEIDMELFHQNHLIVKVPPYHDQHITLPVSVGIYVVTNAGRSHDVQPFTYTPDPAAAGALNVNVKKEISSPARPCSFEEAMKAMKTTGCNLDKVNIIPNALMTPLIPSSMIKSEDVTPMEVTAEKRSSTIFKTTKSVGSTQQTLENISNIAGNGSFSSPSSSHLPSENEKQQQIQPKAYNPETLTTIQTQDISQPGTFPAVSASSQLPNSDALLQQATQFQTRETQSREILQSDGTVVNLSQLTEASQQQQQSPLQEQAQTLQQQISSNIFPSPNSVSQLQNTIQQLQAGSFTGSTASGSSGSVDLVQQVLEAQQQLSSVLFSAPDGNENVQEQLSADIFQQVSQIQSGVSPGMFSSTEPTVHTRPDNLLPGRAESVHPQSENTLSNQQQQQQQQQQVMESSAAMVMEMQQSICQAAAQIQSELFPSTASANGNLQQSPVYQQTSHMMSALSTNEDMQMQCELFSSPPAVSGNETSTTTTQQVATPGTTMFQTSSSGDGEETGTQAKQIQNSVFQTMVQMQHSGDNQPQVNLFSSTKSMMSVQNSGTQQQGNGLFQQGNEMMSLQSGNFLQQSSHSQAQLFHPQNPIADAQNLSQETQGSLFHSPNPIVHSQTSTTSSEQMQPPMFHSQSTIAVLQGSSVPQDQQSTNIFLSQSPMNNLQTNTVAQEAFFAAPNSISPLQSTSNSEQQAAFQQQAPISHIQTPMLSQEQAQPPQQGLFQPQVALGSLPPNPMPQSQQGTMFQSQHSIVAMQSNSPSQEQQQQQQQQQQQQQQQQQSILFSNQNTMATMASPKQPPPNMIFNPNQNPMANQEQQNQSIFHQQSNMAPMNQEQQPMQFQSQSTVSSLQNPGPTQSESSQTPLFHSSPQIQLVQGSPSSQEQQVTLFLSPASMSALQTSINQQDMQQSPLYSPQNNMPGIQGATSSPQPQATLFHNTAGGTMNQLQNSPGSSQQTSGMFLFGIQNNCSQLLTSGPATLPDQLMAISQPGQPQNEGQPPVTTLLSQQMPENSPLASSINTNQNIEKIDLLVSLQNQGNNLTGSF
UniProt Q9NPE2: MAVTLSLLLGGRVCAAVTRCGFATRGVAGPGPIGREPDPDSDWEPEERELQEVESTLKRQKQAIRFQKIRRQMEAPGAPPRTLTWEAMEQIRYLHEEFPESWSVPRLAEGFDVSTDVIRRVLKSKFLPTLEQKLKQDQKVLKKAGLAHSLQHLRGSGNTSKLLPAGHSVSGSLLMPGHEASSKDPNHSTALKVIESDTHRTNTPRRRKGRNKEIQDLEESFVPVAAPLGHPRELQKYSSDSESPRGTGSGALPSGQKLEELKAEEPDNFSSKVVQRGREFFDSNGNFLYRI
UniProt P56556, whole entry, looked up: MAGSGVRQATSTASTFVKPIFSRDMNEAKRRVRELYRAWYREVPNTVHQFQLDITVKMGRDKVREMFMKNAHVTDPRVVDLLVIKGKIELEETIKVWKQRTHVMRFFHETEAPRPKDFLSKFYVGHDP
UniProt P35240: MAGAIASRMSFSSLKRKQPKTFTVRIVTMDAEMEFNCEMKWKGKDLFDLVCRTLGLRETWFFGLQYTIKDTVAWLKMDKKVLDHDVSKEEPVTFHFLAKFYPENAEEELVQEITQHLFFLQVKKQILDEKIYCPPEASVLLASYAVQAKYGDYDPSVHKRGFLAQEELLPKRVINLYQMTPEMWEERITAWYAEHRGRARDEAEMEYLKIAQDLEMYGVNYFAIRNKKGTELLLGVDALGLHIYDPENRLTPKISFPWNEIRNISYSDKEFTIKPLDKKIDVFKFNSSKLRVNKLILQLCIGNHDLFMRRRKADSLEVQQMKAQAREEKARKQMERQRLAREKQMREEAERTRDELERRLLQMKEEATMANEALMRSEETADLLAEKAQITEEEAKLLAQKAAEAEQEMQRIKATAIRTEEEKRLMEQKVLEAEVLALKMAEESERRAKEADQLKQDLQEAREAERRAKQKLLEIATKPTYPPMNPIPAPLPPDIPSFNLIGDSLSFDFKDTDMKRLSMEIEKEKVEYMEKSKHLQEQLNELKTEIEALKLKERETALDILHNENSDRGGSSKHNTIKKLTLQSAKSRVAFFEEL
UniProt O75251, whole entry, looked up: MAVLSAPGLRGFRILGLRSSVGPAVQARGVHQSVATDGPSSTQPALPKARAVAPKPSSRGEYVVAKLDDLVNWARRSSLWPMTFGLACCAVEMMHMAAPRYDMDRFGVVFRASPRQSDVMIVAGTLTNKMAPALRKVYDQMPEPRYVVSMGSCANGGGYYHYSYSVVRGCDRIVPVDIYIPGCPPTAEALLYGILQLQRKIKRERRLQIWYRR
UniProt Q9Y6M9, whole entry, looked up: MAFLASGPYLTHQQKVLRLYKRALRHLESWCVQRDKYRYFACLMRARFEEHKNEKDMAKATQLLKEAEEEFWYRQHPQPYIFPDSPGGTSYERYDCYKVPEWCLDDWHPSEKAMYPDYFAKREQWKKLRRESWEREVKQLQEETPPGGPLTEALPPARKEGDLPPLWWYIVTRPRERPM
UniProt O95169, whole entry, looked up: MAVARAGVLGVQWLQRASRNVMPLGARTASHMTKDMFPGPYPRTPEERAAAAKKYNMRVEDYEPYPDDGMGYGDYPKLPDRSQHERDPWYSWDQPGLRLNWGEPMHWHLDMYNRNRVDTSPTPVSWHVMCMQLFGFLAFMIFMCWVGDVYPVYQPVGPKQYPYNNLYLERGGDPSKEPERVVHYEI
UniProt O75323: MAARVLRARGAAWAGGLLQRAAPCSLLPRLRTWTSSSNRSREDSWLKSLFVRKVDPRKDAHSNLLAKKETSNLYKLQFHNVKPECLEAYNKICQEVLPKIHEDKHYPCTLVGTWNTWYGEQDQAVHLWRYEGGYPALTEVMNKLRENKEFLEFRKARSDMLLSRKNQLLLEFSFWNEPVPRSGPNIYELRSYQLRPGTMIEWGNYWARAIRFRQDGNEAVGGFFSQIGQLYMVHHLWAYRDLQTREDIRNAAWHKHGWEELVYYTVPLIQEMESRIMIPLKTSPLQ
UniProt Q8TDX7: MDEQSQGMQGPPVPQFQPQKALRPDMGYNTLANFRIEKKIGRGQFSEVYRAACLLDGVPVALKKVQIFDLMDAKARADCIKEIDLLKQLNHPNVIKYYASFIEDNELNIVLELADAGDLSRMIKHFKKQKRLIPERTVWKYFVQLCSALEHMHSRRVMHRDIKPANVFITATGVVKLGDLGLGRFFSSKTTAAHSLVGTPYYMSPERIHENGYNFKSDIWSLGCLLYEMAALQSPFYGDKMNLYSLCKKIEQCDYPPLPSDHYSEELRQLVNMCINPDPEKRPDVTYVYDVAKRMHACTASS
UniProt Q9NYR9: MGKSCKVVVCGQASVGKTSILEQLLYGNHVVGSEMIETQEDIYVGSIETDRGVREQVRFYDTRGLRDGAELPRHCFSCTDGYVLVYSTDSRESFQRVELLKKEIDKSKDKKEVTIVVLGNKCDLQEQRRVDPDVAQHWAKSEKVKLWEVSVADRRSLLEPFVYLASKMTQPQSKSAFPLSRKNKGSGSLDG
UniProt Q9BYG3: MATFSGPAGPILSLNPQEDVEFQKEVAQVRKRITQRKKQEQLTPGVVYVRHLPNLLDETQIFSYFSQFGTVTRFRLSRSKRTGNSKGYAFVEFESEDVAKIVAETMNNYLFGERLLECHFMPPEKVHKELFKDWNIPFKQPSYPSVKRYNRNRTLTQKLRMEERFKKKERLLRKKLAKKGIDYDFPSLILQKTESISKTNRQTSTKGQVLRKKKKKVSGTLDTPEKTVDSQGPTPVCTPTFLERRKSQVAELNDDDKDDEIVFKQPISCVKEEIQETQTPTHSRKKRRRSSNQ
UniProt Q86Y39, whole entry, looked up: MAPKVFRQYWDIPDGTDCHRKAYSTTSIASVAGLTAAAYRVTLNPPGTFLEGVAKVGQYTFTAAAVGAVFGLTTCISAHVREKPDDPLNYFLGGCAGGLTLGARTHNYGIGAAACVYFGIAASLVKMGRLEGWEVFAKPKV

log2 fold change, inactive:
NDUFA7 (UniProt O95182) -0.017
NFATC4 isoform 2 (UniProt Q14934) -0.046
NHP2 (UniProt Q9NX24) -0.077
NFATC3 (UniProt Q12968) -0.022
NFAT5 isoform 5 (UniProt O94916) -0.012
NGRN (UniProt Q9NPE2) -0.001
NDUFA6 (UniProt P56556) 0.013
NF2 (UniProt P35240) -0.03
NELFB isoform 2 (UniProt Q8WX92) 0.024
NDUFS7 (UniProt O75251) 0.027
NFX1 (UniProt Q12986) -0.019
NDUFB9 (UniProt Q9Y6M9) 0.058
NDUFB8 (UniProt O95169) 0.066
NF1 (UniProt P21359) -0.021
NIPSNAP2 (UniProt O75323) -0.039
NEK7 (UniProt Q8TDX7) 0.003
NKIRAS2 (UniProt Q9NYR9) -0.088

Compound: Cc1nc(Nc2n[nH]c3c2CN(C(=O)N[C@H](CN(C)C)c2ccccc2)C3(C)C)c2sccc2n1
Assay: as above
Method in brief: as §1

log2 fold change, inactive:
NIPSNAP3A (UniProt Q9UFN0) 0.016
NEDD8 (UniProt Q15843) -0.073
NDUFAF4 (UniProt Q9P032) -0.035
NDUFV1 (UniProt P49821) 0.026
NEU1 (UniProt Q99519) 0.02
NDRG2 (UniProt Q9UN36) -0.015
NDUFAB1 (UniProt O14561) 0.006
NIFK (UniProt Q9BYG3) -0.003
NFU1 (UniProt Q9UMS0) -0.024
NDC80 (UniProt O14777) 0.005
NEDD1 isoform 3 (UniProt Q8NHV4) 0
NIP7 (UniProt Q9Y221) 0
NIT1 (UniProt Q86X76) -0.002
NDUFA10 (UniProt O95299) 0.054
NFIC (UniProt P08651) -0.162
NLRP2 (UniProt Q9NX02) 0.013
NEDD4 isoform 4 (UniProt P46934) -0.039
NDRG3 (UniProt Q9UGV2) 0.038
NFKBIE (UniProt O00221) 0.014
NEPRO (UniProt Q6NW34) 0.062
NDUFA11 (UniProt Q86Y39) -0.027
NGLY1 (UniProt Q96IV0) 0.02
NFS1 (UniProt Q9Y697) 0.001
NDUFA7 (UniProt O95182) 0.016
NFATC4 isoform 2 (UniProt Q14934) -0.018
NHP2 (UniProt Q9NX24) 0.06
NFATC3 (UniProt Q12968) 0.023
NFAT5 isoform 5 (UniProt O94916) -0.07
NGRN (UniProt Q9NPE2) 0.013
NDUFA6 (UniProt P56556) 0.005
NF2 (UniProt P35240) 0.002
NELFB isoform 2 (UniProt Q8WX92) -0.01
NDUFS7 (UniProt O75251) -0.022
NFX1 (UniProt Q12986) 0.068
NDUFB9 (UniProt Q9Y6M9) 0.022
NDUFB8 (UniProt O95169) 0.006
NF1 (UniProt P21359) 0.053
NIPSNAP2 (UniProt O75323) -0.006
NEK7 (UniProt Q8TDX7) 0.016
NKIRAS2 (UniProt Q9NYR9) -0.175

Compound: Cc1nc(Nc2ncc(C(=O)Nc3c(C)cccc3Cl)s2)cc(N2CCN(CCO)CC2)n1 [dasatinib]
Assay: as above
Method in brief: as §1

log2 fold change, inactive:
NIPSNAP3A (UniProt Q9UFN0) 0.028
NEDD8 (UniProt Q15843) 0.027
NDUFAF4 (UniProt Q9P032) -0.01
NDUFV1 (UniProt P49821) -0.001
NEU1 (UniProt Q99519) -0.012
NDRG2 (UniProt Q9UN36) 0.014
NDUFAB1 (UniProt O14561) -0.036
NIFK (UniProt Q9BYG3) -0.012
NFU1 (UniProt Q9UMS0) 0.021
NDC80 (UniProt O14777) -0.05
NEDD1 isoform 3 (UniProt Q8NHV4) 0.042
NIP7 (UniProt Q9Y221) 0.051
NIT1 (UniProt Q86X76) -0.039
NDUFA10 (UniProt O95299) -0.086
NFIC (UniProt P08651) 0.014
NLRP2 (UniProt Q9NX02) -0.019
NEDD4 isoform 4 (UniProt P46934) -0.011
NDRG3 (UniProt Q9UGV2) -0.027
NFKBIE (UniProt O00221) -0.053
NEPRO (UniProt Q6NW34) -0.082
NDUFA11 (UniProt Q86Y39) 0.02
NGLY1 (UniProt Q96IV0) -0.038
NFS1 (UniProt Q9Y697) -0.016
NDUFA7 (UniProt O95182) -0.01
NFATC4 isoform 2 (UniProt Q14934) 0.055
NHP2 (UniProt Q9NX24) 0.03
NFATC3 (UniProt Q12968) -0.067
NFAT5 isoform 5 (UniProt O94916) 0.008
NGRN (UniProt Q9NPE2) -0.019
NDUFA6 (UniProt P56556) -0.01
NF2 (UniProt P35240) -0.044
NELFB isoform 2 (UniProt Q8WX92) -0.025
NDUFS7 (UniProt O75251) -0.033
NFX1 (UniProt Q12986) 0.079
NDUFB9 (UniProt Q9Y6M9) 0.019
NDUFB8 (UniProt O95169) -0.027
NF1 (UniProt P21359) 0.007
NIPSNAP2 (UniProt O75323) -0.016
NEK7 (UniProt Q8TDX7) -0.03
NKIRAS2 (UniProt Q9NYR9) -0.012
